The other results are listed elsewhere or left out. The data scatter; read single values as rough.
Compound: ClCC(=O)N[C@H]1CCCc2ccccc12
Experiment: log2 mean competition ratio of IA-DTB cysteine labelling (DMSO/compound) (log2 ratio); higher = stronger cysteine engagement by compound
Conditions: 50 µM; treatment time: 4 h; cell line lysate: HEK293T
Experimental: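 IA-DTB competitive cysteine chemoproteomics in HEK293T RIPA lysate. Lysates were treated with compound 29 or 30 at 50 or 200 µM for 4 h, then IA-DTB (500 µM, 1 h), trypsin-digested, NeutrAvidin-enriched and analysed by diaPASEF. Competition ratio = intensity DMSO / intensity compound (n=4 treated, n=64 DMSO); binding: mean log2 CR ≥ 1 and p ≤ 0.05 plus QC filters. Target is the cysteine site.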

The chains behind the UniProt entries cited, without tags or fusion partners. Where a name states a change or a piece, a line headed by the entry shows the natural chain unless it says otherwise. Residues count along the entry.
UniProt Q14CB8: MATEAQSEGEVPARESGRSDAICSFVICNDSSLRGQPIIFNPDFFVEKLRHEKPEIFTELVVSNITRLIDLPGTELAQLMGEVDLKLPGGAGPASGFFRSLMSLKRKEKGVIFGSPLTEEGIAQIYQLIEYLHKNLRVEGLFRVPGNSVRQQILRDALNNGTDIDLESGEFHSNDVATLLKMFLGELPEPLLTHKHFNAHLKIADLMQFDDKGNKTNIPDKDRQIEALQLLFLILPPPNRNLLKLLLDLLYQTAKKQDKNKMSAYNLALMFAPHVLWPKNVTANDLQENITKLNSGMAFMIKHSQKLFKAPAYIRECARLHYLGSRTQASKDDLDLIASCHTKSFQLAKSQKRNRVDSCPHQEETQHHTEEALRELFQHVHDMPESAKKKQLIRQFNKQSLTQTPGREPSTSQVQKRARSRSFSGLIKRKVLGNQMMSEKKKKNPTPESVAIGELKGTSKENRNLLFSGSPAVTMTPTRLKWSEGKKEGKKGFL
UniProt P20073: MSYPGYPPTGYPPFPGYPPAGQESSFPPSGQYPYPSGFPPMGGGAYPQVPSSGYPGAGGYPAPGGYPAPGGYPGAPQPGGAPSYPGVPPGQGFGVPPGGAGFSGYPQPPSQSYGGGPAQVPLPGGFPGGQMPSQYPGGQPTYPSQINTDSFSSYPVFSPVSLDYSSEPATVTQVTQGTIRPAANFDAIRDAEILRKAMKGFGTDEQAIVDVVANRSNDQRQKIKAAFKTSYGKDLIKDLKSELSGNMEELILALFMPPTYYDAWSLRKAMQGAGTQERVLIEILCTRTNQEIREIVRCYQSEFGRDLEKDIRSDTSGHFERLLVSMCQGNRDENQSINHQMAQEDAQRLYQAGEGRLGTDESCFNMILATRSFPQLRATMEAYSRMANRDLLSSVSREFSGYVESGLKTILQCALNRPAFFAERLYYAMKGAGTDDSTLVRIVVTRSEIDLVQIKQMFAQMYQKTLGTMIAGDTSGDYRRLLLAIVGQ
UniProt O94973, whole entry, looked up: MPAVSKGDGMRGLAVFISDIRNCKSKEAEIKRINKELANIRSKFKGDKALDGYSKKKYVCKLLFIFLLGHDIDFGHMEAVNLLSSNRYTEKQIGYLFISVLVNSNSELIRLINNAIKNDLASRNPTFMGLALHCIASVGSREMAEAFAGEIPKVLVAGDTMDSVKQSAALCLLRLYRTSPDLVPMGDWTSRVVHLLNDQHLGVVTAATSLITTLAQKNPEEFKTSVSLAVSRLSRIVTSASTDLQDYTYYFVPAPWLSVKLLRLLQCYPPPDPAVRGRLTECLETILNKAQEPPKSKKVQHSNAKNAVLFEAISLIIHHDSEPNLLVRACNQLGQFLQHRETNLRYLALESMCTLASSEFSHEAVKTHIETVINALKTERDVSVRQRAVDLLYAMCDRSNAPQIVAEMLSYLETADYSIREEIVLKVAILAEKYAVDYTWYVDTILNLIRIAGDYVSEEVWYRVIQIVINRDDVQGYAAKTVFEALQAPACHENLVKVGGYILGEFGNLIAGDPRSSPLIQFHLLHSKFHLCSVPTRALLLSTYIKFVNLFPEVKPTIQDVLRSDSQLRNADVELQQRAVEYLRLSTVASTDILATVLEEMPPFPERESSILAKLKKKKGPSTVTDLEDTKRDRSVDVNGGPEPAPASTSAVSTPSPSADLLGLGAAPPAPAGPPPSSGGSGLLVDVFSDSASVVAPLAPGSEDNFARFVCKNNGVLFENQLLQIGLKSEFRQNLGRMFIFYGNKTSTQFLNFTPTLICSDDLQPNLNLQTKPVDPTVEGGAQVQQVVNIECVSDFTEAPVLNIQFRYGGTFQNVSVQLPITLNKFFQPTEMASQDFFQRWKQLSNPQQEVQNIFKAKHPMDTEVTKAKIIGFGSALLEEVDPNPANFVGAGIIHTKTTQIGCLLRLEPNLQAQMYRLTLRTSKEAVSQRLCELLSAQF
UniProt Q8N3C0, whole entry, looked up: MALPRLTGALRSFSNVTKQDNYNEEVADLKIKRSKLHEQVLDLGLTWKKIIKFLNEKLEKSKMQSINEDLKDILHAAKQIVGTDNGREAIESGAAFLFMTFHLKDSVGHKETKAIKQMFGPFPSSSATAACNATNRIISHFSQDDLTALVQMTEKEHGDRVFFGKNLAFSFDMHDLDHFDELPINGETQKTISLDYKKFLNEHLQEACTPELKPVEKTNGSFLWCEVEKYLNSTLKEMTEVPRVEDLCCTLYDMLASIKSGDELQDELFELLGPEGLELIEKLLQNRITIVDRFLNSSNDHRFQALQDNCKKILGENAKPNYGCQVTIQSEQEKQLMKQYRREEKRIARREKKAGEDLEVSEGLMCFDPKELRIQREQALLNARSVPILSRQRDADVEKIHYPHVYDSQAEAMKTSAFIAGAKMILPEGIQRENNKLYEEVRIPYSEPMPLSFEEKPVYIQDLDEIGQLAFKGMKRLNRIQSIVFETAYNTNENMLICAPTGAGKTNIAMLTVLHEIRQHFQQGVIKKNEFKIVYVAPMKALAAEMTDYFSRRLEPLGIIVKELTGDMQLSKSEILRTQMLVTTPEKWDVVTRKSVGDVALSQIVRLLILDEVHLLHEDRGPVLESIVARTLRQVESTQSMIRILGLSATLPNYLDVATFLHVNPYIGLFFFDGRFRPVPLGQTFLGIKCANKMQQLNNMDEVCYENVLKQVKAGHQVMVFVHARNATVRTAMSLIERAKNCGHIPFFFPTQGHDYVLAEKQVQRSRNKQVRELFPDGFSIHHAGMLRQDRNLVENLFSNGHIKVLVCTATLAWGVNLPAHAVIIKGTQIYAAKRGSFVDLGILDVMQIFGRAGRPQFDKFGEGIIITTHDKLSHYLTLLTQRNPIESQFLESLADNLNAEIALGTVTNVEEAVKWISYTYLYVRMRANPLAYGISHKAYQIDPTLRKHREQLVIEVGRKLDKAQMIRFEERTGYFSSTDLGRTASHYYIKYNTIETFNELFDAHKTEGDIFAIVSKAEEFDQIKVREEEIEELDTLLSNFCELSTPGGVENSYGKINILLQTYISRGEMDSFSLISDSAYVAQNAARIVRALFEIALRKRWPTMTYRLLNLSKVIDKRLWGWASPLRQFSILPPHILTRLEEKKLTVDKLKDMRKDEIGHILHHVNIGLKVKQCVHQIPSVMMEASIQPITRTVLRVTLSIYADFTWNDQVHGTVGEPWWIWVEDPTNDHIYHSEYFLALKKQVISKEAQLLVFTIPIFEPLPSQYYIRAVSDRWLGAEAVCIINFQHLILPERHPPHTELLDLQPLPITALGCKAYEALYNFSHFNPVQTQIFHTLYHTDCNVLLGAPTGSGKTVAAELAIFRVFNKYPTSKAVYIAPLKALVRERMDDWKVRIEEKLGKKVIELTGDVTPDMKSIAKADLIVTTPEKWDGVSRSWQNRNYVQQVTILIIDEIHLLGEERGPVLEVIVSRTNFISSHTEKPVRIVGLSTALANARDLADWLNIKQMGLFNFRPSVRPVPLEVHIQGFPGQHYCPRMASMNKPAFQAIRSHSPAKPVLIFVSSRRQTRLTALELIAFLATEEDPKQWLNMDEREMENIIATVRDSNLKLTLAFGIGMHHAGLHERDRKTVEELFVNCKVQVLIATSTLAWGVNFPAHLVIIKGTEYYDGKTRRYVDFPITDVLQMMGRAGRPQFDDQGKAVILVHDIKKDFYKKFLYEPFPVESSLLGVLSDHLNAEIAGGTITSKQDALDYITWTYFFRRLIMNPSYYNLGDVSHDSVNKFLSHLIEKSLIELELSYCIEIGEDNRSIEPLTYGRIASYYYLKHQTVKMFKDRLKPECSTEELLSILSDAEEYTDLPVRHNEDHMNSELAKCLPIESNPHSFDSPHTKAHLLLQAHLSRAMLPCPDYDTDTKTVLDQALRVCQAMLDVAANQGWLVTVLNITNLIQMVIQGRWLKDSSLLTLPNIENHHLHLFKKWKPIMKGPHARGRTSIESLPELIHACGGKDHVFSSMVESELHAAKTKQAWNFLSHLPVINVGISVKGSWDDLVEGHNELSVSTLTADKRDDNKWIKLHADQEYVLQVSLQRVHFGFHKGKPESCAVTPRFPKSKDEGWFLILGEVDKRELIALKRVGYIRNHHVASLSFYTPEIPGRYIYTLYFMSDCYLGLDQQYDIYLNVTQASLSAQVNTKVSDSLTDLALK
UniProt P07741, 123-145: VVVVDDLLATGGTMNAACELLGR
UniProt Q66PJ3: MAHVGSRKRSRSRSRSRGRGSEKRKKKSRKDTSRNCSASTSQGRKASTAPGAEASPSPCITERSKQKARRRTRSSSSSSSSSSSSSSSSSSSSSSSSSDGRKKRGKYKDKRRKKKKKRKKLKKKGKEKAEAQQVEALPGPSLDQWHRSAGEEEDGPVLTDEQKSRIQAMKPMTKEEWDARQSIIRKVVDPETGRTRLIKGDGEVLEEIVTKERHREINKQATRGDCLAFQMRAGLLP
UniProt A7KAX9, 1353-1385: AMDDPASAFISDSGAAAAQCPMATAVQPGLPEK
UniProt A7KAX9, 1965-1985: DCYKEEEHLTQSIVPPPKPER
UniProt O14727: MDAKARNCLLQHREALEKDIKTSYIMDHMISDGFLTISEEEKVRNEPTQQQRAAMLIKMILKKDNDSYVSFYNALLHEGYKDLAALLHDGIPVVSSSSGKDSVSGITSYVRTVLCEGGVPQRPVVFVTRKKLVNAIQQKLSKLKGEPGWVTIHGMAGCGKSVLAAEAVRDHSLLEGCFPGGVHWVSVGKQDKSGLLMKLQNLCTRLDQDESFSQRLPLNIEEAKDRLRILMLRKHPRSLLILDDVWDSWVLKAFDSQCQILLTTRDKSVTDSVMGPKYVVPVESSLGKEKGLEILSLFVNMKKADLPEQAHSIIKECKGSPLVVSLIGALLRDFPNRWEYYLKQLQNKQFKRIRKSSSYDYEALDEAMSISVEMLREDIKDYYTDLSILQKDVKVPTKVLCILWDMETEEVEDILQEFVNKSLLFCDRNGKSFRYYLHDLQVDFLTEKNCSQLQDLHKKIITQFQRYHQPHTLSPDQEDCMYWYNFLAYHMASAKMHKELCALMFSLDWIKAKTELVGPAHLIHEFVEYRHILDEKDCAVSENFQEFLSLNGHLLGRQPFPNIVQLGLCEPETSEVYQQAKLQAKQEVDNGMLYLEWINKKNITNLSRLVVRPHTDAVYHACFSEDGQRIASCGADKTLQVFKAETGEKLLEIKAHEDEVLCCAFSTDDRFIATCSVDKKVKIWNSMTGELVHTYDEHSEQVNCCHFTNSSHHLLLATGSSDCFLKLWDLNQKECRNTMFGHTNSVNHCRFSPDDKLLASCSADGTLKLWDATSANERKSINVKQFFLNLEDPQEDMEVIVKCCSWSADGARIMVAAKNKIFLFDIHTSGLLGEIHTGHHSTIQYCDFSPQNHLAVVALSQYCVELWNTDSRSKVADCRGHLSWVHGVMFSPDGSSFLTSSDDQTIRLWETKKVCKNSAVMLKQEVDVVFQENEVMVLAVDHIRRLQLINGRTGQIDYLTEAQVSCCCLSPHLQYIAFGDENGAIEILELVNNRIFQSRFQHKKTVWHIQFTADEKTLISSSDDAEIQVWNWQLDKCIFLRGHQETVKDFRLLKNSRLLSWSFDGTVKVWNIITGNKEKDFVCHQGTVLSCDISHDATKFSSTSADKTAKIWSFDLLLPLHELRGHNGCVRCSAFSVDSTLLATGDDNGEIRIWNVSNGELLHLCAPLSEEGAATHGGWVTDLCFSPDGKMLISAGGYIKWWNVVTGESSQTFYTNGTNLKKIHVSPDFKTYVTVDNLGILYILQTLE
UniProt Q14155: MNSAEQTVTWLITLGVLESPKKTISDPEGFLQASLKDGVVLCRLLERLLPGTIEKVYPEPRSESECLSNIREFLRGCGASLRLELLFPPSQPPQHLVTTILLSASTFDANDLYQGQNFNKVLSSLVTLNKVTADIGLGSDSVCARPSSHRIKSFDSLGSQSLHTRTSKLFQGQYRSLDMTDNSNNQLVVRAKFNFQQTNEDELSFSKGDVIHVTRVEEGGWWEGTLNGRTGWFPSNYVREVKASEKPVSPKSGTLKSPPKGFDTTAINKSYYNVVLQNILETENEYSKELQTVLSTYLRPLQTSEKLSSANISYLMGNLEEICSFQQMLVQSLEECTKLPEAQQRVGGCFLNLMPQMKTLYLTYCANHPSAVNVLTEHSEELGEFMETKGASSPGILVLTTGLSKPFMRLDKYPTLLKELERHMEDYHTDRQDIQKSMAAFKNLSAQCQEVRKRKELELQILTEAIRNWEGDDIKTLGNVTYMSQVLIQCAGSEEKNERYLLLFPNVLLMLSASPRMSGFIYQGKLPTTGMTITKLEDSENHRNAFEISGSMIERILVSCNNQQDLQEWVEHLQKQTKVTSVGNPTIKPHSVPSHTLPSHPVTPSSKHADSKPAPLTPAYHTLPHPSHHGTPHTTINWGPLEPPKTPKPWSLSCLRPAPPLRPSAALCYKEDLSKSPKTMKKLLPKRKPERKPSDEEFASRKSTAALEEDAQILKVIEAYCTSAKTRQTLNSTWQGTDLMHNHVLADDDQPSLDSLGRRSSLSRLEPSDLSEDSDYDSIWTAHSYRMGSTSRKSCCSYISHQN

Row | Target | log2 mean competition ratio
1 | ANKRD40 C358 (UniProt Q6AI12) | -0.000661
2 | ARIH1 C327 (UniProt Q9Y4X5) | 0.384
3 | APBA2 C483 (UniProt Q99767) | -0.362
4 | ARHGAP19 C340 (UniProt Q14CB8) | -0.69
5 | ANKRD11 C818 (UniProt Q6UB99) | -0.209
6 | ANXA7 C298 (UniProt P20073) | 0.178
7 | ANKRD52 C169 (UniProt Q8NB46) | 0.14
8 | ARID4B C178 (UniProt Q4LE39) | -0.369
9 | ARCN1 C479 (UniProt P48444) | -0.337
10 | AQR C1245 (UniProt O60306) | -0.0879
11 | ARFGEF2 C90 (UniProt Q9Y6D5) | 0.184
12 | AP2A2 C532 (UniProt O94973) | 0.486
13 | ARNT C62 (UniProt P27540) | -0.311
14 | AP2A2 C282 (UniProt O94973) | -0.279
15 | AP3B1 C893 (UniProt O00203) | -0.315
16 | ASCC3 C225 (UniProt Q8N3C0) | -0.153
17 | AP1B1 C921 (UniProt Q10567) | -0.0646
18 | APRT C140 (UniProt P07741) | -0.0353
19 | ARL6IP4 C36 (UniProt Q66PJ3) | -0.0127

Row | Target | log2 mean competition ratio
20 | AP3D1 C348 (UniProt O14617) | -0.532
21 | ARHGEF40 C1282 (UniProt Q8TER5) | -0.184
22 | ARMT1 C315 (UniProt Q9H993) | -0.278
23 | AP2B1 C241 (UniProt P63010) | 0.189
24 | ASCC3 C2101 (UniProt Q8N3C0) | -0.036
25 | ARHGAP32 C1372 (UniProt A7KAX9) | 0.782
26 | APBB1 C672 | 0.377
27 | ARHGAP32 C1966 (UniProt A7KAX9) | -0.751
28 | APAF1 C203 (UniProt O14727) | 0.166
29 | APLP2 C343 (UniProt Q06481) | -0.212
30 | ARL5B C132 (UniProt Q96KC2) | -0.299
31 | ARHGEF6 C418 (UniProt Q15052) | -0.197
32 | ANLN C512 (UniProt Q9NQW6) | 0.064
33 | ARL16 C164 | -0.315
34 | ANKRD54 C265 (UniProt Q6NXT1) | -0.00632
35 | ARFGEF1 C1503 (UniProt Q9Y6D6) | 0.0457
36 | ARHGEF7 C448 (UniProt Q14155) | -0.215
37 | APAF1 C633 (UniProt O14727) | -0.132

Same assay, conditions: 200 µM; treatment time: 4 h; cell line lysate: HEK293T

Row | Target | log2 mean competition ratio
38 | ANKRD40 C358 (UniProt Q6AI12) | 0.159
39 | ARIH1 C327 (UniProt Q9Y4X5) | -0.21
40 | APBA2 C483 (UniProt Q99767) | -0.448
41 | ARHGAP19 C340 (UniProt Q14CB8) | 0.114
42 | ANKRD11 C818 (UniProt Q6UB99) | -0.142
43 | ANXA7 C298 (UniProt P20073) | -0.072
44 | ANKRD52 C169 (UniProt Q8NB46) | -0.174
45 | ARID4B C178 (UniProt Q4LE39) | -0.145
46 | ARCN1 C479 (UniProt P48444) | -0.0485
47 | AQR C1245 (UniProt O60306) | -0.325
48 | ARFGEF2 C90 (UniProt Q9Y6D5) | 0.123
49 | AP2A2 C532 (UniProt O94973) | -0.427
50 | ARNT C62 (UniProt P27540) | 0.263
51 | AP2A2 C282 (UniProt O94973) | -0.0221
52 | AP3B1 C893 (UniProt O00203) | 0.207
53 | ASCC3 C225 (UniProt Q8N3C0) | -0.103
54 | AP1B1 C921 (UniProt Q10567) | -0.0858
55 | APRT C140 (UniProt P07741) | -0.308
56 | ARL6IP4 C36 (UniProt Q66PJ3) | -0.142

Row | Target | log2 mean competition ratio
57 | AP3D1 C348 (UniProt O14617) | -0.106
58 | ARHGEF40 C1282 (UniProt Q8TER5) | 0.0211
59 | ARMT1 C315 (UniProt Q9H993) | -0.225
60 | AP2B1 C241 (UniProt P63010) | 0.0248
61 | ASCC3 C2101 (UniProt Q8N3C0) | -0.318
62 | ARHGAP32 C1372 (UniProt A7KAX9) | -0.378
63 | APBB1 C672 | -0.0317
64 | ARHGAP32 C1966 (UniProt A7KAX9) | -0.0781
65 | APAF1 C203 (UniProt O14727) | 0.0169
66 | APLP2 C343 (UniProt Q06481) | -0.0862
67 | ARL5B C132 (UniProt Q96KC2) | 0.466
68 | ARHGEF6 C418 (UniProt Q15052) | -0.0972
69 | ANLN C512 (UniProt Q9NQW6) | -0.0212
70 | ARL16 C164 | 0.246
71 | ANKRD54 C265 (UniProt Q6NXT1) | 0.388
72 | ARFGEF1 C1503 (UniProt Q9Y6D6) | -0.173
73 | ARHGEF7 C448 (UniProt Q14155) | -0.328
74 | APAF1 C633 (UniProt O14727) | -0.307
